Among the data in publication PMC10890932 are binding values, retold here.

The chains behind the UniProt entries cited, without tags or fusion partners. Where a name states a change or a piece, a line headed by the entry shows the natural chain unless it says otherwise.
UniProt P09874: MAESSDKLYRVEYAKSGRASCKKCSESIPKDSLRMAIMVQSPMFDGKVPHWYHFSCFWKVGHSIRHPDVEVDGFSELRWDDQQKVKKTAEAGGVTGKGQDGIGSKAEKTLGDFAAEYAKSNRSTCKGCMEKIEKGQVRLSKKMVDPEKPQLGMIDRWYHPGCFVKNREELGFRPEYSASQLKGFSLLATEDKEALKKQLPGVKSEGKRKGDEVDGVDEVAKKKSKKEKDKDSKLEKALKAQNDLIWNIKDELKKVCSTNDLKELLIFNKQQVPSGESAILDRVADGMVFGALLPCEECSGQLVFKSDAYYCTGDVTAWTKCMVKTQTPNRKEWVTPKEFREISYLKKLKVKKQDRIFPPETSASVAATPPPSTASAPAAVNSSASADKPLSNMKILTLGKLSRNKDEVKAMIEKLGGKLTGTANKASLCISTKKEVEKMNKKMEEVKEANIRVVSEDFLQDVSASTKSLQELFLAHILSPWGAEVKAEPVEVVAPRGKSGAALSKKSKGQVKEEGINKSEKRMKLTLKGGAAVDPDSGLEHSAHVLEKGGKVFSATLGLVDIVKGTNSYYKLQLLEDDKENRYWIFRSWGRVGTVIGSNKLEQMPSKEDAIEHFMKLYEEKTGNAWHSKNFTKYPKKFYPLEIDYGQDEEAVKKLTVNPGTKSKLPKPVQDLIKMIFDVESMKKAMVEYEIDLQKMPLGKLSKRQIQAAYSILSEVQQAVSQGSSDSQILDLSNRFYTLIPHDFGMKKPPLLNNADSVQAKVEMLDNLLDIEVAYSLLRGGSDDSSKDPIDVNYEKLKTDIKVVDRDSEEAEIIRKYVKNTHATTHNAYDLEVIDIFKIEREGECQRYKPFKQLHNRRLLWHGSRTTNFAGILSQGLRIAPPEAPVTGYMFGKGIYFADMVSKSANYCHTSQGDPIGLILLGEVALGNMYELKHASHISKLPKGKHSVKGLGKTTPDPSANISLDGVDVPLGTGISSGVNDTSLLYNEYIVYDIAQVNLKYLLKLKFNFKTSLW

Assay [1] addresses T1, TKT full-length (plasmid co-transfected with PARP1 truncation mutants) (human) (UniProt P29401).
T1 sequence: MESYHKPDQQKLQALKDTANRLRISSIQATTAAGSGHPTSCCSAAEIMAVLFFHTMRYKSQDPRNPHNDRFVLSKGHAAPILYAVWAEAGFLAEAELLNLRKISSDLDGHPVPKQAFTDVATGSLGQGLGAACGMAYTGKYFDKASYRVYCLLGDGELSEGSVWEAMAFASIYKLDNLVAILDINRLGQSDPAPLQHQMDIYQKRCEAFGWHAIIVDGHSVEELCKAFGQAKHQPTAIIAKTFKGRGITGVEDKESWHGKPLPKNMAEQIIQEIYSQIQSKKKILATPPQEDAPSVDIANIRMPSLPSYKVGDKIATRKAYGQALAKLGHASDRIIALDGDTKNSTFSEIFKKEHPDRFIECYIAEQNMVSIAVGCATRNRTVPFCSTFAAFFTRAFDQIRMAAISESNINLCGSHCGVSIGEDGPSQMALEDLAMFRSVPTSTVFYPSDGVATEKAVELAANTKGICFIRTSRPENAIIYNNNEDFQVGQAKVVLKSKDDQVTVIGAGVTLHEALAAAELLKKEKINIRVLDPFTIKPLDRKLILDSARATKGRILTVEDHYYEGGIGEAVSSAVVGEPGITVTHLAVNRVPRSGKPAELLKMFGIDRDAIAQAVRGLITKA
The assay can be described thus: co-IP; Hep3B cells transfected with TKT or PARP1 truncation mutants together with PARP1 or TKT full-length plasmid.

In the next assay the target is T2, TKT-Flag (human) (UniProt P29401).
T2 sequence: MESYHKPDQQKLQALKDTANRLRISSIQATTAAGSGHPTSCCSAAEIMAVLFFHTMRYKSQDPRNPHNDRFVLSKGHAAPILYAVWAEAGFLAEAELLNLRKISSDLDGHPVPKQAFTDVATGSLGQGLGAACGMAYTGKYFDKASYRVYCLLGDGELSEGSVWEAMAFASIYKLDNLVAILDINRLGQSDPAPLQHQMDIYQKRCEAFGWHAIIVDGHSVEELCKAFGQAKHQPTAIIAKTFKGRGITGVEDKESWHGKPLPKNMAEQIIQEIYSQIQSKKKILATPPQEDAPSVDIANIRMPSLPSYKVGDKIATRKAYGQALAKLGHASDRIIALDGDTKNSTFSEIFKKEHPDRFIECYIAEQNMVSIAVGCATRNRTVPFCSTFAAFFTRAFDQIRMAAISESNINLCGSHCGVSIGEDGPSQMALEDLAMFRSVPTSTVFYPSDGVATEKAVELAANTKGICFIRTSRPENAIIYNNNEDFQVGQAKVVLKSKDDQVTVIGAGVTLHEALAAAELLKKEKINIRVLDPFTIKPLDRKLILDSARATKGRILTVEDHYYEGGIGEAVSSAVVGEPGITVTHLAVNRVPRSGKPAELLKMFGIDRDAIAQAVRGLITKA
The experiment in a line: co-IP; Hep3B cells transfected with TKT-Flag or PARP1-Flag alone, or co-transfected with TKT-Flag and PARP1-His; RIPA lysates before and 5, 30, 60 min after 8 Gy X-Ray; anti-Flag M2 magnetic beads, 2 h at 4 °C; western blotting. A general note: Immunoblotting shows a protein as a band on a membrane.

Assay [2] addresses T3, TKT-Flag, recombinant, purified (human) (UniProt P29401).
T3 sequence: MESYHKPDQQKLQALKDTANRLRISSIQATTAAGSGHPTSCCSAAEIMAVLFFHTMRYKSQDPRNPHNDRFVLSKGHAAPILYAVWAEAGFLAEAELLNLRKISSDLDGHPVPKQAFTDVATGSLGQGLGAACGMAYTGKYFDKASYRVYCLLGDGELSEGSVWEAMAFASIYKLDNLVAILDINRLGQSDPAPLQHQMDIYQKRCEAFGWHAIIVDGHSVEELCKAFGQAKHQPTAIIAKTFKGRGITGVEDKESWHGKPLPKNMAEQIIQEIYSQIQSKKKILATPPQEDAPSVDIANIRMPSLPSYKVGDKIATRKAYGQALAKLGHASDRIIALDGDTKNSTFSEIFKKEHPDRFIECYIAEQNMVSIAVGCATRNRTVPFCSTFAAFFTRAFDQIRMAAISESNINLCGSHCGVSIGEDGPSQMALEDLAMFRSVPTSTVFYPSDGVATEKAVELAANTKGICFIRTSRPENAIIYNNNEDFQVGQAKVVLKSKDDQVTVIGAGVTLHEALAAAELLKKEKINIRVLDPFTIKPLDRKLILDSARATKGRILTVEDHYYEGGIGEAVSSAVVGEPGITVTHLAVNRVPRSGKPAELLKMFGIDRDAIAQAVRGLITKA
The assay can be described thus: pull-down; purified recombinant TKT and PARP1 incubated together 2 h at 4 °C; captured with TKT antibody and protein A/G beads; washed with TBST; western blotting; both purified.

The next assay has as its target PARP1-Flag (UniProt P09874). The experiment in a line: co-IP; Hep3B cells transfected with TKT-Flag or PARP1-Flag alone, or co-transfected with TKT-Flag and PARP1-His; RIPA lysates before and 5, 30, 60 min after 8 Gy X-Ray; anti-Flag M2 magnetic beads, 2 h at 4 °C; western blotting.

No constants are given. Whether binding was seen depends on the method and setting. For part of these data: Binding seen in cells or lysates may run through a third protein. Some entries that bind do so weakly or less than the wild type. For part of these data: Sequences can lack the tags named with a protein.

In the case of “BRCT domain of PARP1 (truncation mutant) (from UniProt P09874 385-476) (domain or fragment)”, in assay [1], the binding result is “binds”.

“PARP1-His (co-transfected in Hep3B) (from UniProt P09874 1-1014) (enzyme)”: the binding entry in the assay with TKT-Flag (human) is “binds”.

Regarding “PARP1-His, recombinant, purified (from UniProt P09874 1-1014) (enzyme)”, the binding entry in assay [2] is “binds”.

Regarding “Poly (ADP-ribose) polymerase 1 (PARP1), endogenous in Hep3B (from UniProt P09874 1-1014) (enzyme)”, the binding entry with TKT-Flag (human) is on record as “binds”.

Take “WGR domain of PARP1 (truncation mutant) (from UniProt P09874 542-638) (domain or fragment)”: the binding result in assay [1] is given as “binds”.

B1: Transketolase (TKT), endogenous in Hep3B (enzyme, UniProt P29401 1-623)
chain: MESYHKPDQQKLQALKDTANRLRISSIQATTAAGSGHPTSCCSAAEIMAVLFFHTMRYKSQDPRNPHNDRFVLSKGHAAPILYAVWAEAGFLAEAELLNLRKISSDLDGHPVPKQAFTDVATGSLGQGLGAACGMAYTGKYFDKASYRVYCLLGDGELSEGSVWEAMAFASIYKLDNLVAILDINRLGQSDPAPLQHQMDIYQKRCEAFGWHAIIVDGHSVEELCKAFGQAKHQPTAIIAKTFKGRGITGVEDKESWHGKPLPKNMAEQIIQEIYSQIQSKKKILATPPQEDAPSVDIANIRMPSLPSYKVGDKIATRKAYGQALAKLGHASDRIIALDGDTKNSTFSEIFKKEHPDRFIECYIAEQNMVSIAVGCATRNRTVPFCSTFAAFFTRAFDQIRMAAISESNINLCGSHCGVSIGEDGPSQMALEDLAMFRSVPTSTVFYPSDGVATEKAVELAANTKGICFIRTSRPENAIIYNNNEDFQVGQAKVVLKSKDDQVTVIGAGVTLHEALAAAELLKKEKINIRVLDPFTIKPLDRKLILDSARATKGRILTVEDHYYEGGIGEAVSSAVVGEPGITVTHLAVNRVPRSGKPAELLKMFGIDRDAIAQAVRGLITKA
B1: the binding result with PARP1-Flag was “binds”.
